Reference: US6083677A, “Photographic element containing yellow dye-forming photographic coupler” (Eastman Kodak Company, priority 1998, dated 2000)

Experiment: Monochrome photographic coatings, stepwise exposure, E-6 process; Status A blue transmission density (Dmax) and activity relative to Cmp-8
[1] = Table IV coating set, standard levels
[2] = Table IV, standard levels, Status A blue transmission density
[3] = Table V, silver emulsion and coupler laydown reduced to 70% of standard levels

| Structure (SMILES) | increase in activity over comparative Cmp-8 (Table IV coating set) [%] | Activity Ratio: Dmax(Compound)/Dmax(Cmp8) [1] | Dmax [2] | Activity Ratio: Dmax(Compound)/Dmax(Cmp8) [3] | Dmax [3] | increase / difference in activity (second coating set (Table V), reduced levels, vs Cmp-8 / pivaloylacetanilide couplers) [%] |
| --- | --- | --- | --- | --- | --- | --- |
| CCCCCCCCCCCCCCCCCCOc1ccc(S(=O)(=O)Nc2ccccc2Cl)cc1NC(=O)C(C(=O)N1CCc2ccccc21)N1C(=O)C(OC)N(C)C1=O (stereo not shown) [Cmp-5] | 53 | 1.53 | 4.29 |  |  |  |
| CCCCCCCCCCCCOC(=O)c1ccc(Cl)c(NC(=O)C(C(=O)C(C)(C)C)N2C(=O)C(OCC)N(Cc3ccccc3)C2=O)c1 (stereo not shown) [Cmp-8] |  | 1.00 | 2.80 | 1.00 | 1.46 |  |
| CCCCCCCCCCCCCCCCOC(=O)c1ccc(Cl)c(NC(=O)C(Oc2ccc(S(C)(=O)=O)cc2NS(C)(=O)=O)C(=O)C(C)(C)C)c1 (stereo not shown) [Cmp-9] | 37 | 1.37 | 3.83 | 1.40 | 2.07 | 40 |
| CCCCCCCCCCCCS(=O)(=O)c1ccc(NC(=O)C(Oc2ccc(S(=O)(=O)c3ccc(O)cc3)cc2)C(=O)c2c(-c3ccccc3)n(C)c3ccccc23)c(Cl)c1 (stereo not shown) [Coupler C-4] |  |  |  | 1.67 | 2.44 |  |
| CCCCCCCCCCCCS(=O)(=O)c1ccc(NC(=O)C(Oc2ccc(C(=O)O)cc2)C(=O)c2c(-c3ccccc3)n(C)c3ccccc23)c(Cl)c1 (stereo not shown) [Coupler C-6] |  |  |  | 1.75 | 2.56 |  |
| CCCCCCCCCCCCS(=O)(=O)c1ccc(NC(=O)C(Oc2ccc(S(C)(=O)=O)cc2NS(C)(=O)=O)C(=O)c2c(-c3ccccc3)n(C)c3ccccc23)c(Cl)c1 (stereo not shown) [Coupler C-7] |  |  |  | 1.83 | 2.67 |  |
| CCCCCCCCCCCCS(=O)(=O)c1ccc(NC(=O)C(Oc2ccc(S(C)(=O)=O)cc2NC(C)=O)C(=O)c2c(-c3ccccc3)n(C)c3ccccc23)c(Cl)c1 (stereo not shown) [Coupler C-8] |  |  |  | 1.45 | 2.12 |  |
| CCCCCCCCCCCCNS(=O)(=O)c1ccc(NC(=O)C(Oc2ccc(S(C)(=O)=O)cc2NC(C)=O)C(=O)c2c(-c3ccccc3)n(C)c3ccccc23)c(Cl)c1 (stereo not shown) [Coupler C-9] |  |  |  | 1.35 | 1.97 |  |
| CCCCCCCCCCCCNS(=O)(=O)c1ccc(NC(=O)C(Oc2ccc(S(=O)(=O)c3ccc(O)cc3)cc2)C(=O)c2c(-c3ccccc3)n(C)c3ccccc23)c(Cl)c1 (stereo not shown) [Coupler C-10] |  |  |  | 1.68 | 2.45 |  |
